Results are given in words; binding and its absence hold for the method and conditions named. In cells and extracts the contact can be indirect. Some entries that bind do so weakly or less than the wild type.

Sequences of proteins named here, by UniProt entry; tags and fusion partners are left off.
UniProt Q93008: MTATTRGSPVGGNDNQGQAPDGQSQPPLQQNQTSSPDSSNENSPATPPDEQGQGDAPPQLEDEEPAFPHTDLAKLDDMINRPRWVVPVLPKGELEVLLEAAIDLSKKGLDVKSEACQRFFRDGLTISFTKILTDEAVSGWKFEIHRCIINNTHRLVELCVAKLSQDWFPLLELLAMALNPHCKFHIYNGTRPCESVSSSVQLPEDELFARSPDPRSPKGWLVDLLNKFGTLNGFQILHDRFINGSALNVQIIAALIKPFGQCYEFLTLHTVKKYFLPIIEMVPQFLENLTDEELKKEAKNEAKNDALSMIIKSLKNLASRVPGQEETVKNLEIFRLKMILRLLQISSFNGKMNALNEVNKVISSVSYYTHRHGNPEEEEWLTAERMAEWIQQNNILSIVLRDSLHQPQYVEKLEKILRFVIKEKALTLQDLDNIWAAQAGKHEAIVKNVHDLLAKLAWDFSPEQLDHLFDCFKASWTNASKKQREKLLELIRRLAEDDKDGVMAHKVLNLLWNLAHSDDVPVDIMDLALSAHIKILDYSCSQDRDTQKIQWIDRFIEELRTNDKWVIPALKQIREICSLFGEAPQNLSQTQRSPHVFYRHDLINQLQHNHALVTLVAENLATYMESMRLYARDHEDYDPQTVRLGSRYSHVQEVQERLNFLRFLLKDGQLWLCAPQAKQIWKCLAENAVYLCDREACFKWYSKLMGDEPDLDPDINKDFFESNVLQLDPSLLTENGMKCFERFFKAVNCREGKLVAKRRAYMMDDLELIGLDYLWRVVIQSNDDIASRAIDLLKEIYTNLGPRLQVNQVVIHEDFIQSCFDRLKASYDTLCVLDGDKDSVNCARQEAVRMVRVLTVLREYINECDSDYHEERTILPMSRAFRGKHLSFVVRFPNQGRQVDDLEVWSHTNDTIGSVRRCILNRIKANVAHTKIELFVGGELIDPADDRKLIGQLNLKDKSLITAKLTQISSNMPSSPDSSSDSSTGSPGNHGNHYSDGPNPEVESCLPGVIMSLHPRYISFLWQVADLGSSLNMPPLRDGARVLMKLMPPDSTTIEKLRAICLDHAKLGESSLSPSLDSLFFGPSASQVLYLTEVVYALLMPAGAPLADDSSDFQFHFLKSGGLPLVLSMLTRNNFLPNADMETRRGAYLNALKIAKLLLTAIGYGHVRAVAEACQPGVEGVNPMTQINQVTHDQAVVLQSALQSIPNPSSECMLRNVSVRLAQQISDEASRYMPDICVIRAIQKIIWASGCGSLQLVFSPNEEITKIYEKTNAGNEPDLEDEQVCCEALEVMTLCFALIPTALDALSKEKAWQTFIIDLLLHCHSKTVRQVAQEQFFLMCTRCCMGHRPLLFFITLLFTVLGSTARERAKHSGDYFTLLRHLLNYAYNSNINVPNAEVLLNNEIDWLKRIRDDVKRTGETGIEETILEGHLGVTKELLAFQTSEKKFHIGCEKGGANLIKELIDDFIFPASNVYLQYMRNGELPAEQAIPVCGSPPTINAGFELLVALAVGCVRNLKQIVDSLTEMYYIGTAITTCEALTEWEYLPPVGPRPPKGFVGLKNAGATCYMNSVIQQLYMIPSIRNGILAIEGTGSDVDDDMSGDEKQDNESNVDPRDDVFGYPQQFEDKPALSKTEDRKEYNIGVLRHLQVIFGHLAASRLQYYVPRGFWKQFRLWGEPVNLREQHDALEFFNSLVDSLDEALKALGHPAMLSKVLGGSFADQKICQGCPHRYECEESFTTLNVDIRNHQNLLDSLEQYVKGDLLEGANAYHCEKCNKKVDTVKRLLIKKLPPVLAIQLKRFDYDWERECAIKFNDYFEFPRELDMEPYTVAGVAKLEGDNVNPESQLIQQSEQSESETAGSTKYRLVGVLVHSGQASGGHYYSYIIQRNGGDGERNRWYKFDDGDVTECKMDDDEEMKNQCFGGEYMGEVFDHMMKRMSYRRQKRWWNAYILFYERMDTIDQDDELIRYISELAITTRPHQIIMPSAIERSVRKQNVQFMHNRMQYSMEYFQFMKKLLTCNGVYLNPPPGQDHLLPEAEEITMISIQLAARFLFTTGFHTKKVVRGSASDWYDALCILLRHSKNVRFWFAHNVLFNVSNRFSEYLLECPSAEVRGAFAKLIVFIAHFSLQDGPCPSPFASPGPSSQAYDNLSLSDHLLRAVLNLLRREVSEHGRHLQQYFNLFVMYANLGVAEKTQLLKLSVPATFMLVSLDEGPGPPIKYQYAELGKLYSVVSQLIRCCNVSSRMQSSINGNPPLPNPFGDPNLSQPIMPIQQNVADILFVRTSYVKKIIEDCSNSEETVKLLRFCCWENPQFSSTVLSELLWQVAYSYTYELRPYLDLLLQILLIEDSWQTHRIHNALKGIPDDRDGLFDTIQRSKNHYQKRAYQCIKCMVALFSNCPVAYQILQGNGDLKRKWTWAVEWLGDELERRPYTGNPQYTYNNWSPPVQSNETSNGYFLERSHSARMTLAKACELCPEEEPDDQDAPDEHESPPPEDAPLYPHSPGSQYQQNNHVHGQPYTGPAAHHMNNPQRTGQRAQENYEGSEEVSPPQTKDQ
UniProt P48431: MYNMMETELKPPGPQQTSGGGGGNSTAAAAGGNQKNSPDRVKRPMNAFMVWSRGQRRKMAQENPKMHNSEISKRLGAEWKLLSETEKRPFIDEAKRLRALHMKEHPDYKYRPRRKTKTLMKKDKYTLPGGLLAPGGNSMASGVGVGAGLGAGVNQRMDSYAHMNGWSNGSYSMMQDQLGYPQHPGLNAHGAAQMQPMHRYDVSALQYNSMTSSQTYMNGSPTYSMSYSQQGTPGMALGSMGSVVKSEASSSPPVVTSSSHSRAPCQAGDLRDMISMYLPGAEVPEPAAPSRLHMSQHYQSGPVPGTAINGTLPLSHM

This is an account of results in paper PMC7869572.

The assay has as its target HA-Usp9x (full-length), ubiquitin-specific peptidase 9, X-linked (UniProt Q93008). The experiment in a line: co-IP; HA-Usp9x and FLAG-SOX2 co-expressed in HEK293T; lysis in 25 mM HEPES pH 7.5, 400 mM NaCl, 0.5% IGEPAL CA-630, diluted to 100 mM NaCl and 0.125% IGEPAL; 0.5 mg lysate protein immunoprecipitated with anti-HA for 18 hours, protein A/G 2 h at 4°C; immunoblot with anti-FLAG. A general note: Immunoblotting shows a protein as a band on a membrane.

With “FLAG-SOX2 (pCMV6-FLAG-SOX2), SRY (sex determining region Y)-box 2 (from UniProt P48431 1-317)”, the binding entry is listed as “binds”.
